Test results taken from the supplement of paper PMC10849652.
The list shows a part of the results.

Sequences of proteins named here, by UniProt entry; tags and fusion partners are left off. A change or cut given only in a name is not applied to a line headed by its entry.
UniProt Q9BQS8: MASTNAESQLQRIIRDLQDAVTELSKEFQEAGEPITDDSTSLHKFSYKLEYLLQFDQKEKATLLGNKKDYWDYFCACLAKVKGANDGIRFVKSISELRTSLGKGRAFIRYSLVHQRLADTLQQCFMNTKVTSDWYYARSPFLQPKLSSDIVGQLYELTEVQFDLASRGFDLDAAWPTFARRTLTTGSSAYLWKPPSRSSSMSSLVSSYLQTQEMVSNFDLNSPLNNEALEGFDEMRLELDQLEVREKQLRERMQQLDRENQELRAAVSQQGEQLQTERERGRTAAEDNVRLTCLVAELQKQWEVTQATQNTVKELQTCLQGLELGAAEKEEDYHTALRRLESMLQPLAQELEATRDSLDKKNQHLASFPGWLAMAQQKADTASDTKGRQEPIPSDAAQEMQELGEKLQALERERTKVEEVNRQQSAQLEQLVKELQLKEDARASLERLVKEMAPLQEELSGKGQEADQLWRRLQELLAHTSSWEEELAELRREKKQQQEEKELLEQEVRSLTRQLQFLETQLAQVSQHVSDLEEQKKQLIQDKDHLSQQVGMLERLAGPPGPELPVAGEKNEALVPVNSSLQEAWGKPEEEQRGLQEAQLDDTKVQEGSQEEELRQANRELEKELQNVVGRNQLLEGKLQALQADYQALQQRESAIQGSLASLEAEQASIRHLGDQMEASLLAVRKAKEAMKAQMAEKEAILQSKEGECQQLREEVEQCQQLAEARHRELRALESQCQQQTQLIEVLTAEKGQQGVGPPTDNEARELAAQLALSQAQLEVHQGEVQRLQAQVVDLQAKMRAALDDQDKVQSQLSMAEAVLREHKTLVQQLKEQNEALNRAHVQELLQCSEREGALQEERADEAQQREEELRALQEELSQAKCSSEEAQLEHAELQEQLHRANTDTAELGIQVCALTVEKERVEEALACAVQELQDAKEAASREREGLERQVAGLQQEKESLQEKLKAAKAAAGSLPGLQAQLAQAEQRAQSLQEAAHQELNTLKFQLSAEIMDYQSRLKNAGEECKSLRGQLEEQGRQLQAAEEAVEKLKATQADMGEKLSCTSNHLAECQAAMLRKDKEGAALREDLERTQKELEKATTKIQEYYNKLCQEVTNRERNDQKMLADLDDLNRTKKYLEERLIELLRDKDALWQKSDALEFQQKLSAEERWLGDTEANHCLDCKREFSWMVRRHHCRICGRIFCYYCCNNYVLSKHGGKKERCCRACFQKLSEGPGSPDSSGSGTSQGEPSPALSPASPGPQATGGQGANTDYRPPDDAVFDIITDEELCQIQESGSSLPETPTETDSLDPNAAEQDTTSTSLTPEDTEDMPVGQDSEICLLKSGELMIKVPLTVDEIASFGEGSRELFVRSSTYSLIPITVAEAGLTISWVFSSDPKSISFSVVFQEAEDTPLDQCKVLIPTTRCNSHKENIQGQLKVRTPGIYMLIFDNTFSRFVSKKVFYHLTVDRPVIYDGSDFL
UniProt Q96RP9: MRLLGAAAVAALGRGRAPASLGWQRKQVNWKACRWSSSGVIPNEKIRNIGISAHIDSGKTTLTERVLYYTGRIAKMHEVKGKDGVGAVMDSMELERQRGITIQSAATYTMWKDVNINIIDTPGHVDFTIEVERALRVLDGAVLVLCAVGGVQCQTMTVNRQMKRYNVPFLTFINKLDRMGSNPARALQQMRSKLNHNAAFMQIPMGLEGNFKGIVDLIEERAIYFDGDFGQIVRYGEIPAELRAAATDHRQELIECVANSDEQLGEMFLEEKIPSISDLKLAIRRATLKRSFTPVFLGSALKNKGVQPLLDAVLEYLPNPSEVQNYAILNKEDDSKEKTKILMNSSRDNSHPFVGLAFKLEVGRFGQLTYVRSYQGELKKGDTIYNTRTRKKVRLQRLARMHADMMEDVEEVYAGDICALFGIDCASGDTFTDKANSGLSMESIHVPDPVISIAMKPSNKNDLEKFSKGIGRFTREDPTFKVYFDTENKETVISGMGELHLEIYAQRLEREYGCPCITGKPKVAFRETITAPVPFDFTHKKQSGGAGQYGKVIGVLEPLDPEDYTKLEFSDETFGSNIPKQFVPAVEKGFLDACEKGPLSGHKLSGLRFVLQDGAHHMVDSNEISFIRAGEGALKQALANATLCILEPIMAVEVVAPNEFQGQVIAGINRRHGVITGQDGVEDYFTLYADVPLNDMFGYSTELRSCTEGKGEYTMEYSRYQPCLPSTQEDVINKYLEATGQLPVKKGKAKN
UniProt Q96C23: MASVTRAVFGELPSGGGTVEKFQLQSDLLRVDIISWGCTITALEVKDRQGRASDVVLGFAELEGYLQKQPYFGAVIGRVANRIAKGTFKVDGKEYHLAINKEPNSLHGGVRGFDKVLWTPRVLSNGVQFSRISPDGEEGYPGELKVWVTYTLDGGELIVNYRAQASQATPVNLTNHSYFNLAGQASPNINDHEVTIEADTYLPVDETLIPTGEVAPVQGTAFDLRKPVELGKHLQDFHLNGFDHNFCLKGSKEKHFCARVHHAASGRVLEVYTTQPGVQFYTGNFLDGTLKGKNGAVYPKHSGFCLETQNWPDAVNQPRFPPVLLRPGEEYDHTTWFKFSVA
UniProt P02794, whole entry, looked up: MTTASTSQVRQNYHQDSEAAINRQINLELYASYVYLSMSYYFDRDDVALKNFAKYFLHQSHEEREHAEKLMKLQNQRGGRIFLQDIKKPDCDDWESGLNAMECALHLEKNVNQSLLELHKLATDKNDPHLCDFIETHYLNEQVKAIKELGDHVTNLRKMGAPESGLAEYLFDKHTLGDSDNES
UniProt P38435: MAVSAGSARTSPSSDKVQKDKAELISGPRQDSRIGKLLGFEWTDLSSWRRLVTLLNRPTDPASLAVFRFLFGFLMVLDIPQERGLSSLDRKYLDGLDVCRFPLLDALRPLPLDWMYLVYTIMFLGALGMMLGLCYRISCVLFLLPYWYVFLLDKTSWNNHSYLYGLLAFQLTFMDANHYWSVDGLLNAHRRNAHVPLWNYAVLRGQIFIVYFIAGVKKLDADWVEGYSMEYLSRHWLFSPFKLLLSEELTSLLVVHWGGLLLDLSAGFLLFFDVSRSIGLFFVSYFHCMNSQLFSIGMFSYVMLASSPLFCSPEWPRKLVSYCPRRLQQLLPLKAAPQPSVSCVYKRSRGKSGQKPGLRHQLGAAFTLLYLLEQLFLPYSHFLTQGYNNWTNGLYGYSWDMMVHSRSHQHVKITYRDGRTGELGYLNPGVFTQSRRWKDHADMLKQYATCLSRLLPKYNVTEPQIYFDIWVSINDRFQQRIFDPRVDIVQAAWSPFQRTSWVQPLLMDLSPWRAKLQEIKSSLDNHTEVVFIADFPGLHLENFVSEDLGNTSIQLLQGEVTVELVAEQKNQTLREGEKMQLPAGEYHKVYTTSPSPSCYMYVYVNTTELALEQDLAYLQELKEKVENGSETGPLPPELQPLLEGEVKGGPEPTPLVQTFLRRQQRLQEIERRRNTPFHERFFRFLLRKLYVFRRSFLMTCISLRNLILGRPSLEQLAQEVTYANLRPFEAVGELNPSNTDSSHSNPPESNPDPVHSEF
UniProt Q9NZ52: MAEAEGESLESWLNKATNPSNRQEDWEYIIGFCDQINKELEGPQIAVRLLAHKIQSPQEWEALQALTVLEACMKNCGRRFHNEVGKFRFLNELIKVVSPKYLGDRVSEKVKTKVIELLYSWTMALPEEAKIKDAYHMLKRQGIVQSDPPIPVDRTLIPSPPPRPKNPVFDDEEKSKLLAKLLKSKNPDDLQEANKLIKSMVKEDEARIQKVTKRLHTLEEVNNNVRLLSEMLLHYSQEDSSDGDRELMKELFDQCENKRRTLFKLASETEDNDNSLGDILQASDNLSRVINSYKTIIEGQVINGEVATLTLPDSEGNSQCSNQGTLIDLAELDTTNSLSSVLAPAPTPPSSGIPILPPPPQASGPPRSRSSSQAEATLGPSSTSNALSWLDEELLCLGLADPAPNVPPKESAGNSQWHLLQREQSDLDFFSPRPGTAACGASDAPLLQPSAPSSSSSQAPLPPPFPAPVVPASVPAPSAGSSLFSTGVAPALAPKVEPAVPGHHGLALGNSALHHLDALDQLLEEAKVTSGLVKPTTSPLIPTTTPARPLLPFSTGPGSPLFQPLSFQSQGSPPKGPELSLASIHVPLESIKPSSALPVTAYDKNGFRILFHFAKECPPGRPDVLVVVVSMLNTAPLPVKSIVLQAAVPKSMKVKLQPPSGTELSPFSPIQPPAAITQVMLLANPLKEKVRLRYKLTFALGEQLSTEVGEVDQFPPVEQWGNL
UniProt Q9H3K2: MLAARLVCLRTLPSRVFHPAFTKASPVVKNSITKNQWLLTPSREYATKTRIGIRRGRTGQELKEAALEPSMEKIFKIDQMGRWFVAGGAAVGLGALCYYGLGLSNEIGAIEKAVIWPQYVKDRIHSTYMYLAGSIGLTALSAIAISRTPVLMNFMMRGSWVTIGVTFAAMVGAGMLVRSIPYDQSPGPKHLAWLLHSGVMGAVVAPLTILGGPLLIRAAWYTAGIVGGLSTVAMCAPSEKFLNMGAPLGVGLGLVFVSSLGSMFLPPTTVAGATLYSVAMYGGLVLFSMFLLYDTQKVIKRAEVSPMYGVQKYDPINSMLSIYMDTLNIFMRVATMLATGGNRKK
UniProt P55789: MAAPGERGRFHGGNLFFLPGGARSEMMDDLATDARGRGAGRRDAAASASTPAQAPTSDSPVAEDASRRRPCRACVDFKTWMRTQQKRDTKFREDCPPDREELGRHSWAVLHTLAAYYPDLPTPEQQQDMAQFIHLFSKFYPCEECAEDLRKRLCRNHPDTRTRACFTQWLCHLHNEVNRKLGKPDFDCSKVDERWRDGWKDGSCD
UniProt Q9BWH2: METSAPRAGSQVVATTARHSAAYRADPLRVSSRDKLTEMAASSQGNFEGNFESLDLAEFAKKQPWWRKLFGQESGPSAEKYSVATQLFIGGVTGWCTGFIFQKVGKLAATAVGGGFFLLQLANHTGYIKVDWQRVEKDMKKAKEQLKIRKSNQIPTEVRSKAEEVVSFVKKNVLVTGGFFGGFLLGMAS
UniProt Q92820: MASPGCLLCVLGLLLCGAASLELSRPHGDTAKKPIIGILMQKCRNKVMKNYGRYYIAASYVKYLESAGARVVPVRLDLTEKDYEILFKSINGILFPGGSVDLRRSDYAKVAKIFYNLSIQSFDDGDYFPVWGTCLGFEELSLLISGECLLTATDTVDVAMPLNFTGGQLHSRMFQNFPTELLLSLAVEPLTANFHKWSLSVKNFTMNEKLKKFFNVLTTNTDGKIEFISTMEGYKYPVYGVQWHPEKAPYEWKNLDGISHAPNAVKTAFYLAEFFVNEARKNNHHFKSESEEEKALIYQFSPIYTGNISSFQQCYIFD
UniProt P04406: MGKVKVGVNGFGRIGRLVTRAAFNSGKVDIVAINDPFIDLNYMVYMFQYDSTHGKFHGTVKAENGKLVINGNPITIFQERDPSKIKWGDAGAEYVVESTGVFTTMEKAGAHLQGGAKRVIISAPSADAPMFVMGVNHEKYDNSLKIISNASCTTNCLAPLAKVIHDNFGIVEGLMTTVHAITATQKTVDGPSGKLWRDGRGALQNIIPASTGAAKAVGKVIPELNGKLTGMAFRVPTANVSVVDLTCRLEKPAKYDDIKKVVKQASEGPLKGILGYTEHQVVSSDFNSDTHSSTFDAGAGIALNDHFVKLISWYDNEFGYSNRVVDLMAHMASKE
UniProt P51116, whole entry, looked up: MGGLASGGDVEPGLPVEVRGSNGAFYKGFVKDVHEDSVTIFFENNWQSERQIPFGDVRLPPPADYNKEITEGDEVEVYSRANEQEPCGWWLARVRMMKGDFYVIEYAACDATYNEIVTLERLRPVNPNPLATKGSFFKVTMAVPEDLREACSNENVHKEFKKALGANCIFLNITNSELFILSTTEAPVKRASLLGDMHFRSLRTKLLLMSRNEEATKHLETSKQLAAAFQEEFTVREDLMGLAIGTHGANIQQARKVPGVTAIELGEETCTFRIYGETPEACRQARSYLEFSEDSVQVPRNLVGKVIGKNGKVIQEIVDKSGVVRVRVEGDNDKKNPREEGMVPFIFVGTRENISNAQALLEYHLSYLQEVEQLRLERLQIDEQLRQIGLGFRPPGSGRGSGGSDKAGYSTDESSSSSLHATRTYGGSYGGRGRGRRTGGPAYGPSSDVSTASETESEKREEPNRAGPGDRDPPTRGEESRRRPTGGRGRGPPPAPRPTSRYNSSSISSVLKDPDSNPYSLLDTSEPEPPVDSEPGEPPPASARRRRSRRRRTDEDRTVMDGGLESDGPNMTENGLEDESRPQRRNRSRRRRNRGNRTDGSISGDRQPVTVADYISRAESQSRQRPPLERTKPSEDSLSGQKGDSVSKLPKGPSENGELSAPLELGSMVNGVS

Compound: C1CCN(C1)C(=O)NC2=CC=CC(=C2)NC3=NC=C(C(=N3)NCCC4=CN=CN4)Br
Assay: log2 fold change, soluble protein after heating vs DMSO (PISA); higher = thermal stabilisation; K562 cells, 10 uM, 30 min; active = over 0.2 and 3.5 SD of the protein, either way, in both replicates (recomputed)
Summary of the method: (§1)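 Quantification of soluble protein used TMTpro 16plex LC-MS/MS, with channel sums equalised. Samples were the supernatant after 21,000xg for 90 min of pooled aliquots from K562 cells (2×10^6 cells/mL) treated with 10 μM compound for 30 min, heated for 3 min over 48°C-58°C, and extracted in PBS with 0.5% NP-40 at 4°C. Values, from duplicates, describe thermal stability against control samples on a log2 fold-change scale.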

log2 fold change, inactive:
FYCO1 isoform 4 (UniProt Q9BQS8) 0.001
GFM1 (UniProt Q96RP9) -0.007
GALM (UniProt Q96C23) -0.019
FTH1 (UniProt P02794) 0.02
GGCX (UniProt P38435) 0.044
GGA3 (UniProt Q9NZ52) -0.059
FRG1 (UniProt Q14331) 0.06
GHITM (UniProt Q9H3K2) 0.043
GFER (UniProt P55789) -0.012

Compound: C1CN(CCC1(CC2=CC=C(C=C2)Cl)N)C3=NC=NC4=C3C=CN4
Assay: as above
Summary of the method: as §1

log2 fold change, inactive:
GGNBP2 (UniProt Q9H3C7) -0.06
GAB1 isoform 2 (UniProt Q13480) 0.03
FPGT (UniProt O14772) 0.04
GALK2 (UniProt Q01415) 0.039
G3BP2 (UniProt Q9UN86) -0.122
GEMIN4 (UniProt P57678) -0.322
FUNDC2 (UniProt Q9BWH2) 0.047
FXN (UniProt Q16595) -0.047
FRRS1 (UniProt Q6ZNA5) 0.048
GGPS1 (UniProt O95749) 0.031
GGH (UniProt Q92820) 0.02
GFPT1 (UniProt Q06210) 0.018
GAPDH (UniProt P04406) 0.063
GCLC (UniProt P48506) 0.05
FUBP1 (UniProt Q96AE4) 0.136
GCHFR (UniProt P30047) 0.048
GART (UniProt C9JZG2) -0.233
GALNT6 (UniProt Q8NCL4) 0.135
FTSJ1 (UniProt Q9UET6) -0.093
G3BP1 (UniProt Q13283) -0.058
GANAB isoform 2 (UniProt Q14697) -0.035
FSCN1 (UniProt Q16658) 0.027
FXR2 (UniProt P51116) 0.032
FUT11 (UniProt Q495W5) 0.097
FYCO1 isoform 4 (UniProt Q9BQS8) -0.009
GFM1 (UniProt Q96RP9) 0.019
GALM (UniProt Q96C23) 0.044
FTH1 (UniProt P02794) -0.039
GGCX (UniProt P38435) 0.008
GGA3 (UniProt Q9NZ52) -0.04
FRG1 (UniProt Q14331) 0.077
GHITM (UniProt Q9H3K2) 0.057
GFER (UniProt P55789) 0.063

Compound: C1COCCN1CCN2C3=CC=CC=C3N=C2NC(=O)C4=CC(=CC=C4)[N+](=O)[O-] [IRAK-1-4 Inhibitor I]
Assay: as above
Summary of the method: as §1

log2 fold change, inactive:
GGNBP2 (UniProt Q9H3C7) -0.198
GAB1 isoform 2 (UniProt Q13480) 0.044
FPGT (UniProt O14772) 0.061
GALK2 (UniProt Q01415) 0.005
G3BP2 (UniProt Q9UN86) -0.154
GEMIN4 (UniProt P57678) -0.241
FUNDC2 (UniProt Q9BWH2) 0.03
FXN (UniProt Q16595) -0.012
FRRS1 (UniProt Q6ZNA5) 0.007
GGPS1 (UniProt O95749) 0.019
GGH (UniProt Q92820) 0.038
GFPT1 (UniProt Q06210) 0.012
GAPDH (UniProt P04406) 0.037
GCLC (UniProt P48506) 0.01
FUBP1 (UniProt Q96AE4) 0.014
GCHFR (UniProt P30047) -0.037
GART (UniProt C9JZG2) -0.169
GALNT6 (UniProt Q8NCL4) -0.203
FTSJ1 (UniProt Q9UET6) 0.006
G3BP1 (UniProt Q13283) -0.098
GANAB isoform 2 (UniProt Q14697) -0.072
FSCN1 (UniProt Q16658) 0.029
FXR2 (UniProt P51116) -0.327
FUT11 (UniProt Q495W5) 0.049
FYCO1 isoform 4 (UniProt Q9BQS8) -0.039
GFM1 (UniProt Q96RP9) 0.022
GALM (UniProt Q96C23) 0.047
FTH1 (UniProt P02794) -0.042
GGCX (UniProt P38435) -0.025
GGA3 (UniProt Q9NZ52) -0.022
FRG1 (UniProt Q14331) 0.034
GHITM (UniProt Q9H3K2) 0.039
GFER (UniProt P55789) 0.036
